The source of these data is article PMC9434705.

By UniProt entry, the sequences of proteins in these tests, tags left out.
UniProt O75592: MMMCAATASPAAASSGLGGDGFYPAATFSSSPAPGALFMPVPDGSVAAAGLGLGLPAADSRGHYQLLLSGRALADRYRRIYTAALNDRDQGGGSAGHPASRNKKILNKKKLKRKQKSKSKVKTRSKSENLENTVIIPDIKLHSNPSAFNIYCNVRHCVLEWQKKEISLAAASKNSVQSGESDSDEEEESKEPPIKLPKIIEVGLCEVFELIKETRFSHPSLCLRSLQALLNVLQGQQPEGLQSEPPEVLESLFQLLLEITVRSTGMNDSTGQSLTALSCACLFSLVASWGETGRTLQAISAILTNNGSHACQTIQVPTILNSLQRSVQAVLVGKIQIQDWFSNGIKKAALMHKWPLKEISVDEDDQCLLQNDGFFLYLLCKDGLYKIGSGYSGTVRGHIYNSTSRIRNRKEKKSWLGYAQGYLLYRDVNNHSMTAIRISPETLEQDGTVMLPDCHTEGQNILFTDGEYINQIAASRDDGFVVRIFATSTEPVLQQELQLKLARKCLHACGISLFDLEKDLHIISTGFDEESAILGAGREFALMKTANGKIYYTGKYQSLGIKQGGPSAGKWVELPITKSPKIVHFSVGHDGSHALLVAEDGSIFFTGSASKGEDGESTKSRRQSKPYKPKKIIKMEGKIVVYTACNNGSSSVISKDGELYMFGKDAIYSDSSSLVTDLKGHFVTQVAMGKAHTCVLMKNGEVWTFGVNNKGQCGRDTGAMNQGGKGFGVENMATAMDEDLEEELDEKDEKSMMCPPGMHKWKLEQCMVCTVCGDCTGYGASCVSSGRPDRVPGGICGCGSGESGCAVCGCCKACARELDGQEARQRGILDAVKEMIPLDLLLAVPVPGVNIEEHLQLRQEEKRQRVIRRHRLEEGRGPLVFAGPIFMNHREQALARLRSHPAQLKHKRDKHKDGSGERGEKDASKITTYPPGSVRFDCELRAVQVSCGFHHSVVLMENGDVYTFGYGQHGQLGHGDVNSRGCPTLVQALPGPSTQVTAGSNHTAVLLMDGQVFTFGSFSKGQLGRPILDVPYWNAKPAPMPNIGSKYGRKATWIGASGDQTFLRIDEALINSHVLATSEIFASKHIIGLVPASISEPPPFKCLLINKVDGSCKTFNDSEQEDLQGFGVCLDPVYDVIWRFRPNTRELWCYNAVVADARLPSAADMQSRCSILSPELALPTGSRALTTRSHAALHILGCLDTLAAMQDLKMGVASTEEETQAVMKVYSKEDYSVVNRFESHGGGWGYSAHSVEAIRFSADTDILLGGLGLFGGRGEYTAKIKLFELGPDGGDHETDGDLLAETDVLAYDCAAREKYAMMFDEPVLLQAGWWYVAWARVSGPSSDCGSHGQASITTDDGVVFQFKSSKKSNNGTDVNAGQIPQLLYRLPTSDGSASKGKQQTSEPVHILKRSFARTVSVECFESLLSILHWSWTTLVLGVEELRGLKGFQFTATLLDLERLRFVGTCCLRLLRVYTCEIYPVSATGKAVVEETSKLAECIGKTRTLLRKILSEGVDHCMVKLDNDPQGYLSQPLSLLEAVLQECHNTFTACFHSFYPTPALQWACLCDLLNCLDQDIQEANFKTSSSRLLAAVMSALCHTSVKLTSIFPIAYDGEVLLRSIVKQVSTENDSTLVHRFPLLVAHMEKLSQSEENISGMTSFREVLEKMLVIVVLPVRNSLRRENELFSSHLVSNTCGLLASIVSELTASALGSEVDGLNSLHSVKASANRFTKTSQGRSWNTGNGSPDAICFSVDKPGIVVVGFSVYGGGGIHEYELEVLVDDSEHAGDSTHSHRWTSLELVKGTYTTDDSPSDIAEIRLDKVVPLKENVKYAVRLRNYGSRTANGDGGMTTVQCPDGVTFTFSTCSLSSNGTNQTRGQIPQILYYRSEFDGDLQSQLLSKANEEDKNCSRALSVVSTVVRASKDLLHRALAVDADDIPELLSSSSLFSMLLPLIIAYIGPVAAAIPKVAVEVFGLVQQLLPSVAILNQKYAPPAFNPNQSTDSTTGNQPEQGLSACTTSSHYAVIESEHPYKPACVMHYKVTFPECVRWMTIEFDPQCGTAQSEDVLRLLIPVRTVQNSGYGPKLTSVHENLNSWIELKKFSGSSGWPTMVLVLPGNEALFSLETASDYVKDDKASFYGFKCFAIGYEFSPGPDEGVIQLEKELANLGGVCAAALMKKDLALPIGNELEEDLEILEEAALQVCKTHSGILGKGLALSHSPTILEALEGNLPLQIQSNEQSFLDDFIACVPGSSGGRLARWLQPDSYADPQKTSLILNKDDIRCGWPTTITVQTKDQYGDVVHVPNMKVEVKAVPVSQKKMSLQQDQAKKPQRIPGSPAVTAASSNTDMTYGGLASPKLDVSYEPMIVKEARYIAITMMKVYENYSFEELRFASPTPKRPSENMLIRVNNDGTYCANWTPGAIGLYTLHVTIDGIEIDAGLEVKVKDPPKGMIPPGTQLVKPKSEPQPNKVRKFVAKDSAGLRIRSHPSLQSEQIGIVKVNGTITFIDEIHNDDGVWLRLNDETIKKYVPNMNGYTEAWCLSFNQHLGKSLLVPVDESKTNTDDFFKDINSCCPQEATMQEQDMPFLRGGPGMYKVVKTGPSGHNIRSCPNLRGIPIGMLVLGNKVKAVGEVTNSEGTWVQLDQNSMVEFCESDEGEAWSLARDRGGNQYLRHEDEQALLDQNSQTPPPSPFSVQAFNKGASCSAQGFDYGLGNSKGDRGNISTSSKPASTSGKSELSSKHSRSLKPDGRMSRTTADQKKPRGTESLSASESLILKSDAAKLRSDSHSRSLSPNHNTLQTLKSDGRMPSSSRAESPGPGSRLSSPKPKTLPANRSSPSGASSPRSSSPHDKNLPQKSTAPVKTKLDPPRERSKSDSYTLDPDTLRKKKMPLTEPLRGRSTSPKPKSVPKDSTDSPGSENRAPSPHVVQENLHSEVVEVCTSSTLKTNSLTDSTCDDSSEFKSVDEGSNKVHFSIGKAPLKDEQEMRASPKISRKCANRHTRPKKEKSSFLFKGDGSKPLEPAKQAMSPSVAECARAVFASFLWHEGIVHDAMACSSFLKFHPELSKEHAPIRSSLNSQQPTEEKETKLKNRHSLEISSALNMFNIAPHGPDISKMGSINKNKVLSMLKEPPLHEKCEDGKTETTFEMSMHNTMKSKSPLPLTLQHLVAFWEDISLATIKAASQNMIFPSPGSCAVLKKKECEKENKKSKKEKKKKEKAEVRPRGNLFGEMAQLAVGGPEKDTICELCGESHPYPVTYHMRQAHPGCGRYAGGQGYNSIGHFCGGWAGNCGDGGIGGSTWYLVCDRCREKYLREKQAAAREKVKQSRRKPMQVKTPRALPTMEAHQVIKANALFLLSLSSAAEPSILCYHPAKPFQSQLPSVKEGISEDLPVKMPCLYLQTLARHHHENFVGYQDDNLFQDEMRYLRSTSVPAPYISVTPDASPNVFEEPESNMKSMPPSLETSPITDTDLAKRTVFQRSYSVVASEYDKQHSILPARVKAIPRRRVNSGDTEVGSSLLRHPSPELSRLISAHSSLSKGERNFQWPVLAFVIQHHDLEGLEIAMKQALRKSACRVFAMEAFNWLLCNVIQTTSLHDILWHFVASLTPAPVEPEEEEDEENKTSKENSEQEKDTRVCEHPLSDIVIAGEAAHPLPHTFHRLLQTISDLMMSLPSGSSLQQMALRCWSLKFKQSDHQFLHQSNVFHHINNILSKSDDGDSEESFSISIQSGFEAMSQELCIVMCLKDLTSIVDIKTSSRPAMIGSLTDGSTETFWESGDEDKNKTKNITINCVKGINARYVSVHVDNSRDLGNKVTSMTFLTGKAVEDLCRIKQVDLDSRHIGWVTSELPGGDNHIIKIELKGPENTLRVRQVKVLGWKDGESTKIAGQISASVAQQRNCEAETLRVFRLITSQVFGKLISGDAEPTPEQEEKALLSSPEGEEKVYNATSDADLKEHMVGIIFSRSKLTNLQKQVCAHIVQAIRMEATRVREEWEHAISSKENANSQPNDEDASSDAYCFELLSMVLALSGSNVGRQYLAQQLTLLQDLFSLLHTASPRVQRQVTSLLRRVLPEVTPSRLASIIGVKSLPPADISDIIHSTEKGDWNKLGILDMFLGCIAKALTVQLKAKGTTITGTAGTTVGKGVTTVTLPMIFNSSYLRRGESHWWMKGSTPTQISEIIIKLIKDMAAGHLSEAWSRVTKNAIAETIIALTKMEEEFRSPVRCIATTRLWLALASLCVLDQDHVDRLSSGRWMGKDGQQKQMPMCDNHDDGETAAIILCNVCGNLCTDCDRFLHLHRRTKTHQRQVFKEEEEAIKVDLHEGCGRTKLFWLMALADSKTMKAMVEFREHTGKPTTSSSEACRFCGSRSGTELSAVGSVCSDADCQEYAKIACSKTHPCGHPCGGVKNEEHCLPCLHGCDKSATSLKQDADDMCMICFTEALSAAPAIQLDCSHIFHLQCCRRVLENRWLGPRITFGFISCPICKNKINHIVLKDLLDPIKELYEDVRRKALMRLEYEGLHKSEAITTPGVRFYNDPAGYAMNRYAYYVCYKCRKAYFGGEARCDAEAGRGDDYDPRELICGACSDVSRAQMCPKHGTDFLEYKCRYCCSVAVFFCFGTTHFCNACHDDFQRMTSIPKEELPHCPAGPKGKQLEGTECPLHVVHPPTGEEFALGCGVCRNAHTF

The test deals with T1, FLAG-MST2 (bait of the AP-MS experiment) (UniProt Q13188).
T1 sequence: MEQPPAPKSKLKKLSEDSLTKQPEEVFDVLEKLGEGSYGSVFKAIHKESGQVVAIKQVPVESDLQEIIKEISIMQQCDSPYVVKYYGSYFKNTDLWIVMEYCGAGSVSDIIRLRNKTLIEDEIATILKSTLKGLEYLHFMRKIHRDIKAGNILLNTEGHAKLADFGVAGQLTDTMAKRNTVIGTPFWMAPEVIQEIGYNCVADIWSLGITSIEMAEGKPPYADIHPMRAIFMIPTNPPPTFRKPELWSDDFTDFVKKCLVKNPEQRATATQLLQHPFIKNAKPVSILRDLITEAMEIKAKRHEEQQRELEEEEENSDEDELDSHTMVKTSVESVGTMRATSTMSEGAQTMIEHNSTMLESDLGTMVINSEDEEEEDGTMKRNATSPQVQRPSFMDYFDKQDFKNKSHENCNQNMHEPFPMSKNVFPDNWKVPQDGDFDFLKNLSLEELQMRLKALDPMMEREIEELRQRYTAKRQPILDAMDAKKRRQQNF
Briefly: affinity purification with mass spectrometry; FLAG-MST2 AP-MS; interaction proteomic data set of the group, mined here.

No constants are given. Whether binding was seen depends on the method and setting. In cells and extracts the contact can be indirect. These calls come from enrichment with a bait or labelling near it, and not all partners need be listed. Tags and fused reporters may be left off the sequences shown.

As to “MYCBP2 (prey of the AP-MS experiment) (from UniProt O75592 1-4678)”, the binding result is listed as “binds”.
